# Patent US9409879B2, “Total synthesis of redox-active 1.4-naphthoquinones and their metabolites and their therapeutic use as antimalarial and schistomicidal agents” (CENTRE NATIONAL DE LA RECHERCHE SCIENTIFIQUE, priority 2011, dated 2016)
# Some results were stated once for a whole list of compounds, not compound by compound.
# Test: Complex formation with hematin (apparent association constants)
# Type: binding
# Conditions: pH 7.5; 1:2 or 2:1 complexes with hematin
# From the text: Both 3-benzylnaphtoquinone derivatives form 1:2 or 2:1 complexes with hematin displaying apparent association constants at pH 7.5 of about 10^11-10^13 M^−1. Also the benzoxanthone derivative LJ144K form 1:1 charge-transfer complexes with hematin displaying apparent association constants at pH 7.5 of about 10^5-10^6 M^−1.
compound,measurement,value
CC1=C(Cc2ccncc2)C(=O)c2ccccc2C1=O [LJ186],apparent association constants with hematin,10^11-10^13 M^−1
